# Source: paper PMC8081377 (Mutagenesis, 2021)
# Test system: EpiDerm™ EPI-200-MNA skin tissues
smiles,measurement,value
COC(=O)C1=C(C)NC(C)=C(C(=O)OC)C1c1ccccc1[N+](=O)[O-] [Nifedipine],"top dose, limited by precipitation on the surface of the skin tissues",51 µg/cm^2
